Results reported in article doi:10.1101/2023.11.21.568117.
Results are given in words; binding and its absence hold for the method and conditions named. In cells and extracts the contact can be indirect. Some entries that bind do so weakly or less than the wild type.

The chains behind the UniProt entries cited, without tags or fusion partners.
UniProt Q03347: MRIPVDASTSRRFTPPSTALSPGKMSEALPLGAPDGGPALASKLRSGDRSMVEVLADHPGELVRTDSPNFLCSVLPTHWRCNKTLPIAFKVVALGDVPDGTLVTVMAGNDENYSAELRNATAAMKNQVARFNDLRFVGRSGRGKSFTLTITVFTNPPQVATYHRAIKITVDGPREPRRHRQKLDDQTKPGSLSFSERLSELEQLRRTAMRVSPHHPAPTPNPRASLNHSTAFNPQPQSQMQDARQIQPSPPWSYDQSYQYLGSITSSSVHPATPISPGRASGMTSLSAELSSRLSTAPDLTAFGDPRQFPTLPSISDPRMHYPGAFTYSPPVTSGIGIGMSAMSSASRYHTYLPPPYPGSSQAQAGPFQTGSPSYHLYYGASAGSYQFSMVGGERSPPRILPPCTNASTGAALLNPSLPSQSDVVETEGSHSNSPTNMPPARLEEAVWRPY
UniProt P28322: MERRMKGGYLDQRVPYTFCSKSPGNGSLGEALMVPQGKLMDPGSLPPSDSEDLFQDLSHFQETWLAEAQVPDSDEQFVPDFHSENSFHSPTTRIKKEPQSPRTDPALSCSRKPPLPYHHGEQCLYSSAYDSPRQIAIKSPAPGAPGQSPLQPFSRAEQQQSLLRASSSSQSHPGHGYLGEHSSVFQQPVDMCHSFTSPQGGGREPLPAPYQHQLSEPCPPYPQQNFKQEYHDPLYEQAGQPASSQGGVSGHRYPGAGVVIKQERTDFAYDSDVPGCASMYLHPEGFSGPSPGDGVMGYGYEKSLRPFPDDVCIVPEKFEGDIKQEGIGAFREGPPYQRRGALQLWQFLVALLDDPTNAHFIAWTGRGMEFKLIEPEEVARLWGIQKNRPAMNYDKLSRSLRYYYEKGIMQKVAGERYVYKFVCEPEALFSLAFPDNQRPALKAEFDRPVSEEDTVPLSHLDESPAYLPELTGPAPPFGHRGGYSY

Target: Myc-tagged Runx1 (mouse) (UniProt Q03347)
Experiment: co-IP

binding: binds
Substance: Flag-ETV4 (from UniProt P28322 1-485)
